# The supplement of paper PMC12889115
# The list shows a part of the results. Values are raw readings; no control value is given beside them.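 In the initial screen, polymyxin B was used at a concentration that permeabilizes Salmonella's outer membrane but not its inner membrane. Maximum growth was set by DMSO wells with or without polymyxin B. Since plates varied, data were ranked per plate, and compounds giving the lowest OD600 advanced as hits.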
# Test system: Salmonella enterica serovar Typhimurium SL1344
# Experiment: bacterial growth OD600 after 18 h with compound and polymyxin B; higher = more bacterial growth (less inhibition)
# Conditions: 50 µM, Mueller-Hinton broth
smiles,measurement,setting,value
O=c1cccc2n1C[C@H]1C[C@@H]2CN(Cc2nc(N3CCOCC3)c3cc(Cl)ccc3n2)C1,bacterial growth OD600,polymyxin B 0.75 µg/mL,0.81
Cc1ccc(CN2CCN(Cc3ccccc3)CC2CCO)cc1 (stereo not given),bacterial growth OD600,polymyxin B 1 µg/mL,0.888
COc1ccc(C(=O)C2CCCN(Cc3cccc(F)c3)C2)c(OC)c1 (stereo not given),bacterial growth OD600,polymyxin B 1 µg/mL,0.932
CCOC(=O)C1(CCc2ccccc2)CCN(Cc2ccco2)CC1,bacterial growth OD600,polymyxin B 1 µg/mL,0.84
CC1(C)C(C(=O)N2CCC(C3(c4cccnc4)NC(=O)N(CCc4cccs4)C3=O)CC2)C1(C)C (stereo not given),bacterial growth OD600,polymyxin B 0.75 µg/mL,0.794
COc1cc(CN2CCCC(C(=O)c3cccc(Cl)c3)C2)cc(OC)c1 (stereo not given),bacterial growth OD600,polymyxin B 1 µg/mL,0.391
O=C(NCc1cc(C(F)(F)F)ccc1F)c1cn(C2CCCCC2)nn1,bacterial growth OD600,polymyxin B 1 µg/mL,0.774
O=C(Cc1cccnc1)N1CCCC(N2CCN(c3ccccc3F)CC2)C1 (stereo not given),bacterial growth OD600,polymyxin B 1 µg/mL,0.985
COc1c(C)cc(C(=O)C2CCCN(Cc3ccc(CO)o3)C2)cc1C (stereo not given),bacterial growth OD600,polymyxin B 1 µg/mL,0.877
COc1ccccc1Cn1cc(C(=O)NCCSC)c(=O)c(C(=O)NCCC(C)C)c1,bacterial growth OD600,polymyxin B 0.75 µg/mL,0.63
O=C1O[C@@H]2CN(C3CCCC3)C[C@@H]2N1CCc1ccccn1,bacterial growth OD600,polymyxin B 1 µg/mL,1.26
CC(Cc1ccccn1)NC1CCN(c2ccc(NC(=O)CCc3ccccc3)cc2)CC1 (stereo not given),bacterial growth OD600,polymyxin B 0.75 µg/mL,0.822
Cc1ccc(CN2C[C@H]3OC(=O)N(Cc4ccccn4)[C@H]3C2)o1,bacterial growth OD600,polymyxin B 0.75 µg/mL,0.843
CC(C)CNC1COc2ccccc2C1 (stereo not given),bacterial growth OD600,polymyxin B 0.75 µg/mL,0.845
Cc1nc(CC(=O)N(C)C2CCCN(CCc3ccccc3)C2)cs1 (stereo not given),bacterial growth OD600,polymyxin B 1 µg/mL,1.05
O=C(NC1CC1)c1cn(Cc2ccccc2)cc(C(=O)N2CC[C@@H]3CCCC[C@H]3C2)c1=O,bacterial growth OD600,polymyxin B 0.75 µg/mL,0.896
COc1c(C)cc(C(=O)C2CCCN(Cc3cccc(C)n3)C2)cc1C (stereo not given),bacterial growth OD600,polymyxin B 1 µg/mL,0.891
CCOC(=O)C1(CCc2ccccc2)CCN(Cc2cccc3c2OCO3)CC1,bacterial growth OD600,polymyxin B 1 µg/mL,0.806
COc1c(C)cc(C(=O)C2CCCN(C3CCCC3)C2)cc1C (stereo not given),bacterial growth OD600,polymyxin B 1 µg/mL,0.879
O=C(NCc1cc(F)cc(F)c1)c1cn(C2CCCCC2)nn1,bacterial growth OD600,polymyxin B 1 µg/mL,0.704
O=C(Cc1ccc2c(c1)OCO2)N1CCCC(N2CCN(c3ccc(F)cc3)CC2)C1 (stereo not given),bacterial growth OD600,polymyxin B 1 µg/mL,0.891
Cc1oc(-c2cccc(F)c2F)nc1CN1C[C@@H]2C[C@H](C1)c1cccc(=O)n1C2,bacterial growth OD600,polymyxin B 1 µg/mL,0.895
Cc1ccsc1C(=O)C1CCCN(Cc2cccc(F)c2)C1 (stereo not given),bacterial growth OD600,polymyxin B 1 µg/mL,0.788
COCCNC(=O)c1cn(CCC(C)C)cc(C(=O)N[C@H](C)c2ccc(OC)cc2)c1=O,bacterial growth OD600,polymyxin B 0.75 µg/mL,0.898
COc1ccc(OC)c(CN2CCCC(C(=O)c3cccc(Cl)c3)C2)c1 (stereo not given),bacterial growth OD600,polymyxin B 1 µg/mL,0.771
CC(C)(C)CNC1COc2ccccc2C1 (stereo not given),bacterial growth OD600,polymyxin B 0.75 µg/mL,0.851
CC(Cc1cncs1)NC1CCN(c2ccc(CC(=O)NCCc3cccc(F)c3)cc2)CC1 (stereo not given),bacterial growth OD600,polymyxin B 0.75 µg/mL,0.842
CC(Cc1cccnc1)NC1CCN(c2ccc(NC(=O)Cc3cccc(Cl)c3)cc2)CC1 (stereo not given),bacterial growth OD600,polymyxin B 0.75 µg/mL,0.879
CCN(CC)C(=O)c1cn(Cc2cccc(OC)c2)cc(C(=O)NCc2ccc(C)cc2)c1=O,bacterial growth OD600,polymyxin B 0.75 µg/mL,0.849
CCn1cc(CN2CCCC(C(=O)c3ccc(Cl)cc3C)C2)c(C)n1 (stereo not given),bacterial growth OD600,polymyxin B 1 µg/mL,0.767

# Already shown: 2 of the compounds above.
smiles,measurement,setting,value
Cc1ccsc1C(=O)C1CCCN(Cc2cccc(F)c2)C1 (stereo not given),bacterial growth OD600,polymyxin B 1 µg/mL,0.788
COCCNC(=O)c1cn(CCC(C)C)cc(C(=O)N[C@H](C)c2ccc(OC)cc2)c1=O,bacterial growth OD600,polymyxin B 0.75 µg/mL,0.898
